# Laboratory results reported in paper PMC7892521.
# Chains of the proteins cited; added tags and fusions are not shown. Residues count along the entry.
# UniProt O22456, 1-90: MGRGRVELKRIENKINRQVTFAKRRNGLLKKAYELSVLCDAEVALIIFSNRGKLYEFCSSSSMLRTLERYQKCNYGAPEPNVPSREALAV
# The exact form of at least one protein or probe is not confirmed. At least one verdict was read from the data and is not stated in words by the source.
# Biological target: SEP3MI (SEPALLATA3 MADS- and I-domain) (UniProt O22456)
# Assay: EMSA
# Settings: EMSA: 0.1 uM protein dimer, 0.2 uM DNA, 20 ul, 2 h at 22 C, buffer as in Käppel et al. 2018 (not given); 5% native PAGE, 0.5x TBE, 2.5% glycerol, ethidium bromide; recombinant protein
sequence,measurement,value
ATCTACACTCTTTCCCTACACGACGCTCTTCCGATCTTTATATTCCAAATAAGGAAAGTATGCATGGATCGGAAGAGCACACGTCTGAACTCCAGTCAC (double strand) [EMSA_probe_positive (AG intron 2 CArG box 1)],binding result,binds
